These are yes or no findings as the source states them, for the method shown. Binding seen in cells or lysates may run through a third protein. A yes stands for co-enrichment or nearness to the bait. Other partners may have been found. For some assays here: Where a sequence is shown, tags or fusion partners need not be part of it.
B1: CHK-2 (enzyme, UniProt Q9U1Y5 1-476)
chain: MVRGTKRRRSSAEKPIVVVPVTRDDTMPVDEDLVVGESQCAASKPFAKLVGVRRGISSIDLADDHFVCGRGSDDAPTNFNFSQVAKDVGLYRFISKIQFSIDRDTETRRIYLHDHSRNGTLVNQEMIGKGLSRELMNGDLISIGIPALIIFVYESADADHHPEELTKKYHVTSHSLGKGGFGKVLLGYKKSDRSVVAIKQLNTQFSTRCSRAIAKTRDIRNEVEVMKKLSHPNIVAIYDWITVAKYSYMVIEYVGGGEFFSKVVDSKYNRMGLGESLGKYFAFQLIDAILYLHSVGICHRDIKPENILCSDKAERCILKLTDFGMAKNSVNRMKTRCGTPSYNAPEIVANEGVEYTPKVDIWSLGCVLFITFSGYPPFSEEYTDMTMDEQVLTGRLIFHAQWRRITVETQNMIKWMLTVEPSNRPSAVELMSTQWMKCADCRTAKQDILKSIKPISAAAPAALQTTQAGPVKKAKM

Tests used:
[1] = target: T1, CHK-2::HA (C. elegans) (UniProt Q9U1Y5); experiment: affinity purification with mass spectrometry
T1 sequence: B1 chain

[2] = target: HA::PPM-1.D (C. elegans) (UniProt Q95XK4); experiment: affinity purification with mass spectrometry

Row | Molecule | binding [1] | binding [2]
1 | PPM-1.D (C. elegans (endogenous in C. elegans)) (enzyme) | binds | –
2 | B1 | – | binds
